In article PMC6488673, “Crystal structure of the Lin28-interacting module of human terminal uridylyltransferase that regulates let-7 expression”:
No constants are given. Whether binding was seen depends on the method and setting.

T1: recombinant human Lin28A (residues 1-209) (human) (UniProt Q9H9Z2)
T1 sequence: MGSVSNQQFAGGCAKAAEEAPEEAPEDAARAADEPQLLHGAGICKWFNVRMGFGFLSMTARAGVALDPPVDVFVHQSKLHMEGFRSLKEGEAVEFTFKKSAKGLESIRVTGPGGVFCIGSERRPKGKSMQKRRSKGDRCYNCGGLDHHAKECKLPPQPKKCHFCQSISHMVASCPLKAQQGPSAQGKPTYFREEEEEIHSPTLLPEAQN


Molecular target: T1, recombinant human Lin28A (residues 1-209) (human)
Assay: condition: 300 nM hTUT4 protein, 300 nM hLin28A, 100 nM pre-let-7a-1; native gel or EMSA; 300 nM recombinant hTUT4 protein with 100 nM pre-let-7a-1, with or without 300 nM recombinant hLin28A; 50 mM Tris-HCl pH 8.5, 100 mM NaCl, 10 mM MgCl2, 10 mM β-mercaptoethanol, 10% glycerol, 10 min at room temperature; native polyacrylamide gel stained with ethidium bromide; both purified

binding | Binder
no binding | hTUT4_N C306A/C309A (domain or fragment, UniProt Q5TAX3) SEMDYLENATVIDESALTPEQRLGLKQAEERLERDHIFRLEKRSPEYTNCRYLAKLALIHIENIQGAHKHIKEKRHKKNILEKQEESELRSLPPPSPAHLAALSVAVIELAKEHGITDDDLRVRQEIVEEMSKVITTFLPECSLRLYGSSLTRFALKSSDVNIDIKFPPKMNHPDLLIKVLGILKKNVLYVDVESDFHAKVPVVVCRDRKSGLLCRVSAGNDMACLTTDLLTALGKIEPVFIPLVLAFRYWAKLCYIDSQTDGGIPSYCFALMVMFFLQQRKPPLLPCLLGSWIEGFDPKRMDDFQLKGIVEEKFVKWECNSSSATKEKHGKSPLALETPNRVSLGQLWLELLKFYTLDFALEEYVICVRIQDILTRENKNWPKRRIAIEDPFSVKRNVARSLNSQLVYEYVVERFRAAYRYFACPQTKGGNKSTVDFK
no binding | hTUT4_N K321A/K324A (domain or fragment, UniProt Q5TAX3) SEMDYLENATVIDESALTPEQRLGLKQAEERLERDHIFRLEKRSPEYTNCRYLCKLCLIHIENIQGAHAHIAEKRHKKNILEKQEESELRSLPPPSPAHLAALSVAVIELAKEHGITDDDLRVRQEIVEEMSKVITTFLPECSLRLYGSSLTRFALKSSDVNIDIKFPPKMNHPDLLIKVLGILKKNVLYVDVESDFHAKVPVVVCRDRKSGLLCRVSAGNDMACLTTDLLTALGKIEPVFIPLVLAFRYWAKLCYIDSQTDGGIPSYCFALMVMFFLQQRKPPLLPCLLGSWIEGFDPKRMDDFQLKGIVEEKFVKWECNSSSATKEKHGKSPLALETPNRVSLGQLWLELLKFYTLDFALEEYVICVRIQDILTRENKNWPKRRIAIEDPFSVKRNVARSLNSQLVYEYVVERFRAAYRYFACPQTKGGNKSTVDFK
no binding | hTUT4_N K329A/K330A (domain or fragment, UniProt Q5TAX3) SEMDYLENATVIDESALTPEQRLGLKQAEERLERDHIFRLEKRSPEYTNCRYLCKLCLIHIENIQGAHKHIKEKRHAANILEKQEESELRSLPPPSPAHLAALSVAVIELAKEHGITDDDLRVRQEIVEEMSKVITTFLPECSLRLYGSSLTRFALKSSDVNIDIKFPPKMNHPDLLIKVLGILKKNVLYVDVESDFHAKVPVVVCRDRKSGLLCRVSAGNDMACLTTDLLTALGKIEPVFIPLVLAFRYWAKLCYIDSQTDGGIPSYCFALMVMFFLQQRKPPLLPCLLGSWIEGFDPKRMDDFQLKGIVEEKFVKWECNSSSATKEKHGKSPLALETPNRVSLGQLWLELLKFYTLDFALEEYVICVRIQDILTRENKNWPKRRIAIEDPFSVKRNVARSLNSQLVYEYVVERFRAAYRYFACPQTKGGNKSTVDFK
no binding | hTUT4_N K326A/R327A (domain or fragment, UniProt Q5TAX3) SEMDYLENATVIDESALTPEQRLGLKQAEERLERDHIFRLEKRSPEYTNCRYLCKLCLIHIENIQGAHKHIKEAAHKKNILEKQEESELRSLPPPSPAHLAALSVAVIELAKEHGITDDDLRVRQEIVEEMSKVITTFLPECSLRLYGSSLTRFALKSSDVNIDIKFPPKMNHPDLLIKVLGILKKNVLYVDVESDFHAKVPVVVCRDRKSGLLCRVSAGNDMACLTTDLLTALGKIEPVFIPLVLAFRYWAKLCYIDSQTDGGIPSYCFALMVMFFLQQRKPPLLPCLLGSWIEGFDPKRMDDFQLKGIVEEKFVKWECNSSSATKEKHGKSPLALETPNRVSLGQLWLELLKFYTLDFALEEYVICVRIQDILTRENKNWPKRRIAIEDPFSVKRNVARSLNSQLVYEYVVERFRAAYRYFACPQTKGGNKSTVDFK
